# This is one part of the list. The main result of the screen is listed elsewhere. These columns were measured beside it and carry no call. Compounds called inactive in the main read-out are mostly missing here. Potencies come from curve fits of mixed quality, noted in brackets.
# Assay: qHTS Assay for Lipid Storage Modulators in Drosophila S3 Cells;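 for cell number change: cells counted by Cell Tracker Red CMTPX staining in the red channel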
# Conditions: BODIPY lipid droplet fluorescence, 18-24 h; for cell number change: measured here: cell count max response, cells fed with added oleic acid
# Outline: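 Drosophila S3 cells loaded with oleic acid (400 uM, as added) and compounds at several concentrations; lipid droplets imaged by 488-nm laser-scanning cytometry, 500–530 nm intensity and object ratio to cell channel. Percent activity normalized to 20 uM Triacsin C.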
# [1] = measured here: lipid fluorescence (Fed channel) AC50, cells fed with added oleic acid
# [2] = measured here: cell number channel AC50, cells fed with added oleic acid
compound,measurement,setting,value
COc1cc(C(=O)NCc2nnc(SCC(=O)NC3CCCCC3)o2)cc(OC)c1OC,cell number change,,-9.91%
same,AC50,[1],"6.51 µM [rising, single point]"
O=C(Cc1ccc(Br)cc1)Nc1ncc([N+](=O)[O-])s1,cell number change,,-10.9%
same,AC50,[1],"7.31 µM [falling, partial curve]"
C/C(CC(=O)Nc1cccc(Cl)c1Cl)=N\NC(=O)c1ccccc1N,cell number change,,4.97%
same,AC50,[1],"0.0058 µM [rising, full curve, poor fit]"
Cc1cccc(-n2c(CCn3nc(C)c([N+](=O)[O-])c3C)n[nH]c2=S)c1,cell number change,,38.6%
same,AC50,[2],"0.651 µM [rising, full curve, poor fit]"
same,AC50,[1],"0.651 µM [rising, single point]"
Cc1c(NC(=O)C(C)OC(=O)c2cccnc2Cl)c(=O)n(-c2ccccc2)n1C (configuration not stated),cell number change,,3.08%
Cc1c(C(=O)Nc2c(N)nc(SCC(=O)NCC3CCCO3)[nH]c2=O)cccc1[N+](=O)[O-] (configuration not stated),cell number change,,-13.9%
CCOC(=O)C1CCCN(Cc2nc(N)nc(Nc3ccc(Cl)cc3)n2)C1 (configuration not stated),cell number change,,-18.9%
O=C(OCCN=C1NS(=O)(=O)c2ccccc21)c1ccccc1F,cell number change,,2.42%
same,AC50,[1],"29.1 µM [falling, single point]"
COc1cc2c(cc1NC(=O)c1cccc(S(=O)(=O)N(C)C)c1)oc1ccccc12,cell number change,,8.13%
same,AC50,[1],"0.116 µM [rising, full curve, poor fit]"
COc1ccc2cc(Br)ccc2c1CC(=O)N(C)C,cell number change,,164%
COc1ccc(CNC(=O)c2ccc(=O)oc2)cc1OC,cell number change,,7.61%
same,AC50,[1],"0.00517 µM [falling, full curve, poor fit]"
Cc1ccc(C(C[N+](=O)[O-])c2c(N)n(C)c(=O)n(C)c2=O)cc1 (configuration not stated),cell number change,,-36.4%
same,AC50,[2],"29.1 µM [falling, single point]"
same,AC50,[1],"29.1 µM [falling, single point]"
CCS(=O)(=O)N1Cc2ccccc2CC1C(=O)N(C)Cc1ccc(OC)c(F)c1 (configuration not stated),cell number change,,9.58%
O=C(NCc1ccc(/C=c2\sc3n(c2=O)CCN=3)o1)C(=O)Nc1ccccc1,cell number change,,-28.8%
O=C(Nc1ccccc1N1CCOCC1)C1CCCCN1S(=O)(=O)c1ccccc1 (configuration not stated),cell number change,,24.4%
same,AC50,[2],"2.59 µM [rising, full curve, poor fit]"
same,AC50,[1],"5.8 µM [rising, full curve]"
CCN(CC(=O)NC1CCCC1)S(=O)(=O)c1ccc(Br)cc1,cell number change,,-13.6%
same,AC50,[1],"29.1 µM [falling, single point]"
O=C(CCC(=O)OCc1cccc([N+](=O)[O-])c1)Nc1ccc(F)cc1,cell number change,,12.4%
same,AC50,[2],"6.51 µM [rising, single point]"
same,AC50,[1],"3.66 µM [rising, single point]"
Cc1cccc(CS(=O)(=O)Cc2ccc(C(=O)NCc3cccs3)o2)c1,cell number change,,-23.6%
same,AC50,[1],"29.1 µM [falling, single point]"
CCCCC(CC)CNC(=O)CN1C(=O)NC2(CCc3ccccc32)C1=O (configuration not stated),cell number change,,22.5%
same,AC50,[2],"5.17 µM [rising, partial curve, poor fit]"
same,AC50,[1],"0.058 µM [falling, full curve, poor fit]"
Cc1cc(NC(=O)C2CC(=O)N(c3cccc(Cl)c3)C2)no1 (configuration not stated),cell number change,,20%
same,AC50,[2],"6.51 µM [rising, partial curve]"
CCCCn1nc(CC(=O)O)c2ccccc2c1=O,cell number change,,-5.14%
same,AC50,[1],"4.11 µM [falling, full curve]"
CCn1c(CNc2ccccc2Cl)nnc1SCC(=O)OC1CCCCC1,cell number change,,1.84%
same,AC50,[1],"1.84 µM [falling, full curve]"
COc1cc(-c2nnc(SCc3c(F)cccc3Cl)o2)cc(OC)c1OC,AC50,[2],"0.58 µM [rising, single point]"
same,AC50,[1],"29.1 µM [rising, single point]"
C=CCn1c(Cc2ccccc2)nc2c(cnn2-c2ccccc2)c1=O,cell number change,,173%
same,AC50,[2],"7.31 µM [rising, partial curve]"
same,AC50,[1],"8.2 µM [rising, partial curve]"
Cc1ccc([N+](=O)[O-])cc1S(=O)(=O)Nc1ccc(C(=O)NCc2ccccn2)cc1,cell number change,,38.7%
same,AC50,[2],"29.1 µM [rising, single point]"
NC(=O)c1cc(-c2ccccc2)sc1NC(=O)CN1CCCCC1,cell number change,,-24.8%
same,AC50,[1],"29.1 µM [falling, single point]"
CN(C)S(=O)(=O)c1ccc(C(=O)NNc2nc(-c3ccccc3)c3cc(Br)ccc3n2)cc1,cell number change,,25.2%
same,AC50,[1],"8.2 µM [rising, partial curve]"
COc1ccccc1C1(O)C(=O)Nc2ccccc21 (configuration not stated),cell number change,,-4.63%
same,AC50,[1],"0.731 µM [falling, partial curve, poor fit]"
Nc1c(C(=O)CSc2n[nH]c(-c3ccccc3Br)n2)c(=O)[nH]c(=O)n1C1CC1,cell number change,,32.9%
same,AC50,[2],"18.4 µM [rising, single point]"
same,AC50,[1],"7.31 µM [rising, partial curve]"
CC(C)(C)c1ccc(C(=O)Nc2ccc(F)cc2)s1,cell number change,,-22.1%
same,AC50,[2],"1.03 µM [falling, full curve, poor fit]"
same,AC50,[1],"11.6 µM [falling, partial curve]"
CCOC(=O)c1cccc(NC(=O)CCc2nnc3ccc(N4CCCCC4)nn23)c1,cell number change,,28.6%
same,AC50,[1],"29.1 µM [falling, single point]"
CC1(C)CC(NC(=O)C2CCN(S(=O)(=O)c3cccc(C(F)(F)F)c3)CC2)CC(C)(C)N1,cell number change,,-5.08%
CC(C)(C)c1ccc(C(=O)c2c[nH]c(C(=O)NCc3cccnc3)c2)cc1,cell number change,,72.2%
same,AC50,[2],"14.6 µM [rising, partial curve]"
same,AC50,[1],"16.4 µM [rising, partial curve]"
O=C(CSc1ccc(Br)cc1)N1CCN(S(=O)(=O)c2ccccc2)CC1,cell number change,,1.62%
Cc1cc(NC(=O)C(C)SCC(=O)OC(C)C(=O)Nc2cccc(C#N)c2)no1 (configuration not stated),cell number change,,-54.6%
same,AC50,[2],"7.31 µM [falling, single point]"
same,AC50,[1],"4.61 µM [falling, full curve]"
Cc1ccccc1-n1c(C)nc2ccccc21,cell number change,,73%
same,AC50,[2],"5.8 µM [rising, partial curve]"
CCOC(=O)N1CCC2(CC1)NCCc1c2[nH]c2ccccc12,cell number change,,-8.88%
Cc1c(NC(C)c2ccccc2O)c(=O)n(-c2ccccc2)n1C (configuration not stated),cell number change,,-8.93%
same,AC50,[1],"0.731 µM [falling, full curve]"
Cc1ccc(N2C(=O)CN(Cc3sccc3C)C2=S)cc1C,cell number change,,-15.9%
COc1ccc(C(=O)NCCCNC(=O)c2cnccn2)cc1Br,cell number change,,-5.26%
Cc1cc(C)c(S(=O)(=O)c2ccc(Cl)cc2)c(Cl)n1,cell number change,,-21.5%
same,AC50,[1],"0.517 µM [falling, full curve]"
Cn1c(NC(=O)CC(C)(C)C)cc(=O)n(C)c1=O,cell number change,,6.86%
same,AC50,[1],"0.731 µM [rising, full curve, poor fit]"
CS(=O)(=O)N(CC(=O)Nc1ccccc1Br)Cc1ccccc1,cell number change,,-13.5%
Cc1ccc(C(=O)N2CC3(C)CN(C(=O)c4ccc(C)cc4)CC(C)(C2)C3=O)cc1,cell number change,,-13.5%
same,AC50,[1],"3.66 µM [falling, single point]"
Cc1cc(C(=O)Nc2ccc(Cl)cc2)c2ccccc2n1,cell number change,,31.6%
same,AC50,[2],"32.6 µM [rising, single point]"
O=C(Nc1nc2c(s1)CN(Cc1ccccc1)CC2)C1CCC1,cell number change,,22.9%
same,AC50,[1],"0.651 µM [falling, single point]"
COc1ccc(NC(=O)CNS(=O)(=O)c2ccccc2)cc1Cl,cell number change,,90.2%
O=C(CSc1nnc(NC(=O)c2ccccc2F)s1)NC1CCCC1,cell number change,,11.7%
C=CCn1c(SCC(=O)NC2CCCCC2)nnc1-c1sc(N)nc1C,cell number change,,99.1%
same,AC50,[2],"14.6 µM [rising, partial curve]"
same,AC50,[1],"18.4 µM [rising, partial curve]"
COc1nc(Cl)cn(-c2ccc(C)cc2)c1=O,cell number change,,-17.2%
same,AC50,[1],"4.11 µM [falling, partial curve, poor fit]"
Cc1cc(/C=N/NC(=O)c2ccncc2)c(C)n1-c1cccc(C(F)(F)F)c1,cell number change,,-5.99%
same,AC50,[1],"5.17 µM [falling, single point]"
COc1ccc(C)cc1N(C(=O)c1snc(C(N)=O)c1N)C(C(=O)NC1CCCCC1)c1ccc(C)o1 (configuration not stated),cell number change,,-6.05%
same,AC50,[1],"29.1 µM [falling, single point]"
N/C(=N\OC(=O)CC1CCCCC1)c1ccc([N+](=O)[O-])cc1,cell number change,,8.69%
same,AC50,[1],"0.461 µM [falling, full curve, poor fit]"
O=C(Cn1nc(-c2ccco2)ccc1=O)Nc1ccc(Cl)c(Cl)c1,AC50,[1],"29.1 µM [falling, single point]"
O=C(Nc1cc(=O)c2ccccc2o1)N1CCOCC1,cell number change,,8.75%
same,AC50,[1],"0.164 µM [rising, full curve, poor fit]"
N#Cc1c(Sc2ncc(C(F)(F)F)cc2Cl)nsc1C/C=N\OCc1ccccc1Br,cell number change,,-25.6%
same,AC50,[1],"9.2 µM [falling, partial curve]"
Cc1ccc(S(=O)(=O)Nc2ccccc2C(=O)N2CCCCC2)cc1,cell number change,,-7.37%
same,AC50,[1],"29.1 µM [rising, single point]"
Cc1c(C(=O)OCC(=O)Nc2ccc3c(c2)OCO3)cccc1[N+](=O)[O-],cell number change,,43.6%
same,AC50,[2],"2.06 µM [rising, partial curve]"
same,AC50,[1],"7.31 µM [rising, partial curve]"
CC1CCCCC1NC(=O)CN1CCC(NC(=O)c2ccc([N+](=O)[O-])cc2)CC1 (configuration not stated),cell number change,,2.99%
same,AC50,[1],"0.651 µM [rising, partial curve, poor fit]"
C=CCN1C(=O)/C(=C/c2ccc(O)c(OC)c2)S/C1=N/c1nccs1,cell number change,,-21%
same,AC50,[1],"1.84 µM [rising, partial curve]"

# Given with bars between the fields: part of the list above
compound | measurement | setting | value
Cc1cc(NC(=O)C(C)SCC(=O)OC(C)C(=O)Nc2cccc(C#N)c2)no1 (configuration not stated) | AC50 | [2] | 7.31 µM [falling, single point]
same | AC50 | [1] | 4.61 µM [falling, full curve]
Cc1ccccc1-n1c(C)nc2ccccc21 | cell number change |  | 73%
same | AC50 | [2] | 5.8 µM [rising, partial curve]
CCOC(=O)N1CCC2(CC1)NCCc1c2[nH]c2ccccc12 | cell number change |  | -8.88%
Cc1c(NC(C)c2ccccc2O)c(=O)n(-c2ccccc2)n1C (configuration not stated) | cell number change |  | -8.93%
same | AC50 | [1] | 0.731 µM [falling, full curve]
Cc1ccc(N2C(=O)CN(Cc3sccc3C)C2=S)cc1C | cell number change |  | -15.9%
COc1ccc(C(=O)NCCCNC(=O)c2cnccn2)cc1Br | cell number change |  | -5.26%
Cc1cc(C)c(S(=O)(=O)c2ccc(Cl)cc2)c(Cl)n1 | cell number change |  | -21.5%
same | AC50 | [1] | 0.517 µM [falling, full curve]
Cn1c(NC(=O)CC(C)(C)C)cc(=O)n(C)c1=O | cell number change |  | 6.86%
same | AC50 | [1] | 0.731 µM [rising, full curve, poor fit]
CS(=O)(=O)N(CC(=O)Nc1ccccc1Br)Cc1ccccc1 | cell number change |  | -13.5%
Cc1ccc(C(=O)N2CC3(C)CN(C(=O)c4ccc(C)cc4)CC(C)(C2)C3=O)cc1 | cell number change |  | -13.5%
same | AC50 | [1] | 3.66 µM [falling, single point]
Cc1cc(C(=O)Nc2ccc(Cl)cc2)c2ccccc2n1 | cell number change |  | 31.6%
same | AC50 | [2] | 32.6 µM [rising, single point]
O=C(Nc1nc2c(s1)CN(Cc1ccccc1)CC2)C1CCC1 | cell number change |  | 22.9%
same | AC50 | [1] | 0.651 µM [falling, single point]
COc1ccc(NC(=O)CNS(=O)(=O)c2ccccc2)cc1Cl | cell number change |  | 90.2%
O=C(CSc1nnc(NC(=O)c2ccccc2F)s1)NC1CCCC1 | cell number change |  | 11.7%
C=CCn1c(SCC(=O)NC2CCCCC2)nnc1-c1sc(N)nc1C | cell number change |  | 99.1%
same | AC50 | [2] | 14.6 µM [rising, partial curve]
same | AC50 | [1] | 18.4 µM [rising, partial curve]
COc1nc(Cl)cn(-c2ccc(C)cc2)c1=O | cell number change |  | -17.2%
same | AC50 | [1] | 4.11 µM [falling, partial curve, poor fit]
Cc1cc(/C=N/NC(=O)c2ccncc2)c(C)n1-c1cccc(C(F)(F)F)c1 | cell number change |  | -5.99%
same | AC50 | [1] | 5.17 µM [falling, single point]
COc1ccc(C)cc1N(C(=O)c1snc(C(N)=O)c1N)C(C(=O)NC1CCCCC1)c1ccc(C)o1 (configuration not stated) | cell number change |  | -6.05%
same | AC50 | [1] | 29.1 µM [falling, single point]
N/C(=N\OC(=O)CC1CCCCC1)c1ccc([N+](=O)[O-])cc1 | cell number change |  | 8.69%
same | AC50 | [1] | 0.461 µM [falling, full curve, poor fit]
O=C(Cn1nc(-c2ccco2)ccc1=O)Nc1ccc(Cl)c(Cl)c1 | AC50 | [1] | 29.1 µM [falling, single point]
O=C(Nc1cc(=O)c2ccccc2o1)N1CCOCC1 | cell number change |  | 8.75%
same | AC50 | [1] | 0.164 µM [rising, full curve, poor fit]

# From PubChem BioAssay AID2685 (National Center for Advancing Translational Sciences (NCATS), 2010)
